Values joined by “and” are separate entries in the source; they are usually repeats but may differ in a detail not shown here. Identical values can stand only once.
Test system: extracellular levels of acetylcholine in medial prefrontal cortex
Experiment: Acetylcholine modulation in medial prefrontal cortex (microdialysis)
Format: in vivo, male Wistar rats
Details: donepezil alone, 1 mg/kg, s.c., mPFC dialysate
Source text: Male Wistar rats (240-300 g body weight) were stereotaxically implanted with a microdialysis guide cannula in medial prefrontal cortex (mPFC; AP: +3.2 mm, ML: −0.5 mm, DV: −3.0 mm) under isoflurane anesthesia. Co-ordinates were taken according to atlas for the rat brain (Paxinos and Watson 2004) with reference points taken from bregma and vertical from the skull. The rats were allowed to recover individually for four days in a round bottom Plexiglas bowl with free access to feed and water.
After surgical recovery of 4 days, male Wistar rats were connected to dual quartz lined two-channel liquid swivel (Instech, UK) on a counter balance lever arm, which allowed unrestricted movements of the animal. Sixteen hours before start of the study, a pre-equilibrated microdialysis probe (2 mm dialysis membrane) was inserted into mPFC through the guide cannula. On the day of study, probe was perfused with artificial cerebrospinal fluid (aCSF; NaCl 147 mM, KCl2.7 mM, MgCl2 1 mM, CaCl2. 2H2O 1.2 mM, pH 7.4) at a flow rate of 1.5 μL/min and a stabilization period of 2 h was maintained. Five basal samples were collected at 20 min intervals prior to the treatment of test Compounds (3 or 10 mg/kg, p.o.) or vehicle. […] Dialysate samples were collected for an additional period of 4 h post treatment of test compounds. […]
Acetylcholine concentrations in dialysates were quantified using LC-MS/MS based method. […]

COc1cc2c(cc1OC)C(=O)C(CC1CCN(Cc3ccccc3)CC1)C2 (stereo not shown) [donepezil, reference compound]
maximum cortical acetylcholine levels, % of basal levels: 933±74 % of basal levels and 1459±146 % of basal levels and 1170±161 % of basal levels
